Results: PubChem BioAssay AID2685 (National Center for Advancing Translational Sciences (NCATS), 2010)
Hit rate of the full screen: of about 320,000 compounds, about 2,100 (0.66%) were called active. This list was built around the results that the source calls inconclusive (neither active nor inactive); the mix of calls is not that of the screen. The call rests on the fitted dose curve; in most records, active means well fitted inhibition curve with a large enough effect in the signal ratio, with a control signal flat (not every such curve was filed as active); inconclusive means small, poorly fitted or top-dose-only effect, or effect the other way, or a change in a side signal; inactive means flat fitted curve, though single readings scatter; the % refers to the signal ratio. Potencies beside an inconclusive call are fits to weak or partial responses and may not hold up.

Assay: qHTS Assay for Lipid Storage Modulators in Drosophila S3 Cells
Details: BODIPY lipid droplet fluorescence, 18-24 h, cells fed with added oleic acid; lipid storage change, negative = inhibition: at 46.1 µM (top of the series) unless noted
How it was run: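 Laser-scanning cytometry quantifies lipid droplet accumulation (500–530 nm total intensity; droplet/cell object ratio) in oleic acid-fed (400 uM added) Drosophila S3 cells treated with a concentration series. 20 uM Triacsin C defined 100% inhibition.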
On the % scale 0 is the no-effect control and ±100 the full control effect; potency means the concentration at half of the fitted maximal effect.

SMILES	lipid storage change, negative = inhibition	Potency
O=C(O)c1ccc(N/N=C/c2cn(Cc3ccc(F)cc3)c3ccccc23)cc1	inactive: 7.6%	–
Cc1ccc(S(=O)(=O)Nc2nc3ccccc3nc2NCC2CCCO2)cc1C (stereo not drawn)	inconclusive: 41.4%	–
CNC(=O)/C(C#N)=C\c1ccc(CNS(=O)(=O)c2ccc(Cl)cc2)o1	inactive: -15.4%	–
COc1ccc(CNC(=O)C(C)n2nc(C)c3c(C)n(-c4ccccc4)nc3c2=O)c(OC)c1 (stereo not drawn)	inactive: 6.4%	–
COc1ccc(/C=C(/NC(=O)c2ccccc2)C(=O)N2CCCCC2)cc1	–	inconclusive: 5800 nM [activator, full curve]
Oc1cccc2ccc(/C=C/c3ccccc3Br)nc12	inconclusive: -34.8%	–
COc1ccc(C(C)(C)C)cc1NC(=O)COC(=O)C1=NNC(=O)CC1	–	inconclusive: 20600 nM [activator, single point]
O=C(Nc1ccccc1)Nc1cnccn1	inconclusive: -13.8%	–
COc1ccccc1NC(=O)CCSc1nc(C)cc(C)n1	inconclusive: 24.5%	–
COCCN(Cc1cc2cc(C)ccc2n2nnnc12)C(=S)Nc1cccc(C)c1	inconclusive: -0.4%	–
O=S(=O)(c1ccc2ccccc2c1)N1CCN(C(=S)Nc2ccc(F)cc2)CC1	inconclusive: 43.8%	–
O=C(O)c1ccc(Nc2nc(-c3ccccc3)c3ccccc3n2)cc1	–	inconclusive: 146 nM [falling, full curve, poor fit]
Cc1cc(NCCO)c2cc(O)ccc2n1	–	inconclusive: 5.2 nM [falling, full curve, poor fit]
COc1ccc(-c2nc3c(c4nnc(SC(C)C(=O)Nc5ccc(C)cc5)n24)COC(C)(C)C3)cc1 (stereo not drawn)	inconclusive: 7.52%	–
Cn1ccsc1=NC(=O)c1ccc(S(C)(=O)=O)c([N+](=O)[O-])c1	inconclusive: -100%	–
Cn1ncc2c(N3CCN(c4ccccc4F)CC3)ncnc21	–	inconclusive: 651 nM [activator, single point]
CSc1ncc(C(=O)Nc2cccc(Cl)c2C)c(C)n1	–	inconclusive: 411 nM [activator, partial curve, poor fit]
O=C(Nc1c(Cl)cc(Cl)cc1-c1nc2ccccc2s1)c1ccc(Br)o1	–	inconclusive: 651 nM [activator, single point]
CCOc1ccc(CN(C)C(=O)CNC(=O)C2CCCCC2)cc1	–	inconclusive: 5800 nM [falling, single point]
COC(=O)c1ccc(NC(=O)CSc2nnc(C3CC3)n2C)cc1	–	inconclusive: 1030 nM [activator, full curve]
Cc1ccc2ncc(NC(=O)c3ccc(F)cc3)c(=O)n2c1	inconclusive: 4.36%	–
COc1ccc(OCc2nnc(SCC(=O)NNC(=O)c3ccc(C)cc3)n2C)cc1	inconclusive: 10.7%	–
Cc1nc(S(=O)(=O)Cc2ccccc2Cl)nc2c1CCC2	inconclusive: 10.6%	–
Nc1c(N2CCOCC2)cc(Cl)c2nonc12	–	inconclusive: 29100 nM [activator, single point]
C=CCn1cccc(C(=O)Nc2ccc(Cl)cc2)c1=O	inactive: 8.12%	–
O=C(CC(c1ccccc1)c1cc(Br)ccc1O)NCc1ccco1 (stereo not drawn)	inconclusive: 69.9%	–

Whole records from above.
Cc1ccc(S(=O)(=O)Nc2nc3ccccc3nc2NCC2CCCO2)cc1C (stereo not drawn) is listed as lipid storage change, negative = inhibition: inconclusive: 41.4%
Oc1cccc2ccc(/C=C/c3ccccc3Br)nc12 is listed as lipid storage change, negative = inhibition: inconclusive: -34.8%

(more compounds)

SMILES	lipid storage change, negative = inhibition	Potency
CN(C)S(=O)(=O)Nc1cc(Cl)cc(Cl)c1	–	active: 18400 nM
Cc1ccc(CN2CCc3c(OCc4ccc(F)cc4)cccc3C2=O)cc1	–	inconclusive: 18400 nM [falling, single point]
C/C(=C\C(=O)c1ccc(Cl)cc1)Nc1ccc(N2CCOCC2)cc1	inconclusive: 50%	–
Cc1cccc(C)c1NC(=O)c1c(-c2ccccc2)noc1C	inconclusive: -16.9%	–
COc1ccc2cc(C(=O)NCc3ccccc3)c(=O)oc2c1	–	inconclusive: 146 nM [activator, full curve, poor fit]
COc1ccc(NC(=O)c2cccs2)cc1NC(=O)c1ccco1	inconclusive: -4.85%	–
CCN(CC)S(=O)(=O)c1ccc(C)c(NC(=O)CNc2cccc(S(=O)(=O)N3CCCC3)c2)c1	–	inconclusive: 58 nM [falling, full curve, poor fit]
O=C(NC1CCCCC1)C(c1ccccc1)N(Cc1ccco1)C(=O)Cn1cnc2ccccc21 (stereo not drawn)	inconclusive: -16.1%	–
CCn1c(SCC(=O)N2CCOCC2)nnc1-c1cccs1	inconclusive: 10.7%	–
Cc1ccc[n+](CC(=O)Nc2ccc(N(C)C)cc2)c1	inconclusive: -23.7%	–
O=C(N/N=C\c1cn[nH]c1-c1ccccc1)c1cccs1	inconclusive: -1.58%	–
CC(=O)Nc1ccc(S(=O)(=O)N[C@H](C(=O)O)C(C)C)cc1	inconclusive: 110%	–
COc1ccc(NC(=O)C2=CC(c3ccc(C)cc3)=NS(=O)(=O)N2C)cc1	–	active: 5170 nM
CCOc1ccc(Nc2cc(C)nc(N3CCOCC3)n2)cc1	–	inconclusive: 3660 nM [activator, partial curve]
CCCCCCCCCCOC(=O)C[N+](C)(C)CC1CCCCC1O (stereo not drawn)	inconclusive: 24.5%	–
Cc1cc(C)nc(N2CCCC(C(=O)NCCC3=CCCCC3)C2)n1 (stereo not drawn)	–	inconclusive: 164 nM [falling, full curve]
CCC(C)c1ccc(NC(=S)NCCn2cc(Cl)cn2)cc1 (stereo not drawn)	–	inconclusive: 146 nM [falling, full curve, poor fit]
CC1CCCCC1NC(=O)COC(=O)c1ccccc1NC(=O)c1ccco1 (stereo not drawn)	–	inconclusive: 1460 nM [activator, partial curve]
CC12CCC(C(=O)Nc3nc4ccccc4s3)(OC1=O)C2(C)C (stereo not drawn)	inconclusive: 44.9%	–
Cc1ccc2nc3c(c(N)c2c1)CCN3C	–	inconclusive: 103 nM [activator, full curve, poor fit]
Cc1c(NC(=O)c2cccc(NC(=O)COc3ccc(C#N)cc3)c2)c(=O)n(-c2ccccc2)n1C	inconclusive: -34.7%	–
COc1ccc(NC(=O)CC2SC(N)=NC2=O)c([N+](=O)[O-])c1 (stereo not drawn)	inconclusive: -7.75%	–
O=C(Cn1cc2c(n1)CCCC2)NCCCN1CCCC1	inconclusive: -2.92%	–
COc1ccc(C2CC(=O)c3cnc(N)nc3C2)c(OC)c1 (stereo not drawn)	inconclusive: 16.9%	–
Cc1ccc(C2=NC3(CCCCCC3)NC2=S)cc1	inconclusive: 6.65%	–
COc1ccc(C(=O)Nc2cc(C(=O)c3ccccc3)c(C)oc2=O)cc1	inconclusive: -7.98%	–

Of the compounds above, 2 contain a nitro group on carbon.
SMILES	lipid storage change, negative = inhibition	Potency
Cn1ccsc1=NC(=O)c1ccc(S(C)(=O)=O)c([N+](=O)[O-])c1	inconclusive: -100%	–
COc1ccc(NC(=O)CC2SC(N)=NC2=O)c([N+](=O)[O-])c1 (stereo not drawn)	inconclusive: -7.75%	–

(continued)

SMILES	lipid storage change, negative = inhibition	Potency
Cc1nc2ccc(NS(=O)(=O)c3ccc(C)c(C)c3)cc2s1	inconclusive: 48.3%	–
Cc1ccc2c(c1)c1c(n2CC(O)CN2CCCCCC2)CCCC1 (stereo not drawn)	–	inconclusive: 580 nM [falling, single point]
CCS(=O)(=O)N1CCC(C(=O)N2CCN(Cc3ccccc3)CC2)CC1	inconclusive: -21.4%	–
CS(=O)(=O)N1CCCC(C(=O)Nc2ccc(Br)cc2F)C1 (stereo not drawn)	inconclusive: -28.7%	–
Cc1cccc2cccnc12	inconclusive: 5.62%	–
COc1ccc2c(c1)NC(C)(C)C=C2C	inconclusive: 31.6%	–
COc1ccc(CN2C(=O)C(Cc3ccccc3)Nc3ncnc(N4CCc5ccccc5C4)c32)cc1 (stereo not drawn)	inconclusive: 12.3%	–
CC(OC(=O)c1ccc(Cl)nc1)C(=O)Nc1ccc2c(c1)OCO2 (stereo not drawn)	inconclusive: -26.4%	–
Cc1cc(C)cc(CSCC(=O)NN=C2CCCCCC2)c1	inconclusive: -15.7%	–
COc1ccc([C@H]2CC(=O)C=C(c3cccc(NC(C)=O)c3)C2)cc1	inconclusive: -17.6%	–
Cc1ccc(/C=C/c2ccc(=O)n(Cc3ccc(Cl)cc3Cl)n2)cc1	inconclusive: 7.89%	–
O=C(CN1CCOCC1)Nc1ncccn1	inconclusive: -154%	–
Cc1cc(=O)oc2ccc(OC(C)C(=O)O)cc12 (stereo not drawn)	inconclusive: 3.36%	–
c1ccc(CCNc2c3c(nc4ncnn24)CCC3)cc1	inconclusive: -35.4%	–
Cc1ccsc1C(C(=O)NCc1ccccc1)N(C(=O)c1csnn1)c1ccccc1 (stereo not drawn)	–	inconclusive: 820 nM [falling, partial curve]
CCC(=O)NN1CCN(c2ccncc2S(=O)(=O)N2CCCCC2)CC1	inconclusive: -13.5%	–
CC(C)CC(=O)N(c1nnc(-c2cccnc2)s1)C1CCCC1	–	inconclusive: 29100 nM [falling, single point]
N#Cc1ccccc1S(=O)(=O)N1CCN(CC(=O)Nc2ccccc2C(=O)NC2CC2)CC1	–	inconclusive: 23.1 nM [falling, full curve, poor fit]
O=C(Nc1ncc([N+](=O)[O-])s1)c1cccs1	–	inconclusive: 23100 nM [falling, single point]
Cc1ccc2[nH]c(C(=O)N3CCN(C=O)CC3)cc2c1	inconclusive: 11.1%	–
COc1cc([N+](=O)[O-])ccc1NC(=O)CSc1nc2ccccc2n1-c1ccccc1	–	inconclusive: 11600 nM [activator, partial curve]
Cc1ccc(C(=O)N[C@H](C(=O)NC2CCCCCCC2)C(C)C)cc1	–	inconclusive: 4110 nM [falling, partial curve, poor fit]
Cc1cccc(C(=O)N/N=C/c2ccc[nH]2)c1	–	inconclusive: 651 nM [cytotoxic, full curve]
COc1cc(C(=O)O[C@H]2CC(C)=CC[C@@]3(C)CC[C@@](O)(C(C)C)[C@H]23)ccc1O	–	inconclusive: 3260 nM [falling, single point]
O=C(O)CCCN1C(=O)C2C3CCC(O3)C2C1=O (stereo not drawn)	–	inconclusive: 820 nM [falling, single point]
O=C(NCCc1cnn(-c2ccccc2)c1)c1cc(COc2c(F)cccc2F)on1	inactive: 15.2%	–
